No constants are given. Whether binding was seen depends on the method and setting. Binding seen in cells or lysates may run through a third protein.
Target: WWOX-WFPA (WW1-domain mutant of WWOX, GST pull-down) (UniProt Q9NZC7)
Test: pull-down

Chains of the proteins cited; added tags and fusions are not shown. Lines headed by an entry give the natural chain unless they say otherwise; changes in a name come on top.
UniProt Q9NZC7: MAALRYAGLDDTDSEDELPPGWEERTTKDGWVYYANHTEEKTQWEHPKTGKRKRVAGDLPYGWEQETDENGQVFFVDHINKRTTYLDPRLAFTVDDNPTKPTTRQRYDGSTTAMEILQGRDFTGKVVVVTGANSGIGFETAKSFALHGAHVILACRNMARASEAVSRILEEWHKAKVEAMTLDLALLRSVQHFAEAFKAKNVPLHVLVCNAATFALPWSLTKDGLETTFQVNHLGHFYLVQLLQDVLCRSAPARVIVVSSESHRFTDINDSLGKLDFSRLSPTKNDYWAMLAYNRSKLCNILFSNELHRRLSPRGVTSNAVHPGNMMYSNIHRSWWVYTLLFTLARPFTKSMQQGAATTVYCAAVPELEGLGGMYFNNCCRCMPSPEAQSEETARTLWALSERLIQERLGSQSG
UniProt P56693: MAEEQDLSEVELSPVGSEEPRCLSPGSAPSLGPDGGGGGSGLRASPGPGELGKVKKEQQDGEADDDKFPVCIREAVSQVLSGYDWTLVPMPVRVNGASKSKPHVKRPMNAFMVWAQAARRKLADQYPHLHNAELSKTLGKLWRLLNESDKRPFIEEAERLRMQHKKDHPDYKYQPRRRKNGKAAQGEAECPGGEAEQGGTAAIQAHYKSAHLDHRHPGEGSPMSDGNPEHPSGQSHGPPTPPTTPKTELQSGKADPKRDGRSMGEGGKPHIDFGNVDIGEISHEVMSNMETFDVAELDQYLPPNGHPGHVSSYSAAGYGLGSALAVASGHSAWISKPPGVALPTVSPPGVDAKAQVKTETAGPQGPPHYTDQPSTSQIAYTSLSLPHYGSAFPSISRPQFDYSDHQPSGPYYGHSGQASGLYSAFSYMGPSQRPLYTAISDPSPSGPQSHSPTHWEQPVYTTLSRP

binding: no binding
Substance: SOX10 (doxycycline-inducible plasmid, Addgene #115241) (from UniProt P56693 1-466)

— doi:10.1101/2025.11.22.689900
